Measurements: patent US20050152835A1, “Technetium-99M glucarate methods of use for monitoring tissues” (priority 2003, published 2005)
At least one read-out could not be matched to a standard name with certainty. At least one compound was matched to its structure with a doubt left.

What was measured:
[1] = system: MCF7/S tumor xenograft; assay: FASTSPECT dynamic imaging and tumor washout kinetics, drug-sensitive xenograft; assay type: in vivo, SCID mice; conditions: mean ± s.e.m.
Method: (§1) Tumor cell lines used. MCF7/S: Cells are parental, drug (doxorubicin) sensitive, breast carcinoma cells. MCF7/D40: Cells were generated in vitro by successive culturing parental MCF7 cells in slowly increasing concentrations of doxorubicin with a total selection time of 31 months. Twenty-eight SCID mice were studied. MCF7/S or MCF7/D40 tumors were grown for 10-14 days after subcutaneous injection of 1×10^6 cells into the right thigh. Groups of mice with the xenografted tumors included: (MCF7/S group: MIBI: n=9; GLA: n=8) and (MCF7/D40 group: MIBI: n=6; GLA: n=5).
(§2) The dynamic imaging system SPECT consisted of 24 small modular gamma cameras. Each modular camera consists of a 10 cm×10 cm NaI(Tl) scintillation crystal, 4 square (5 cm×5 cm) Hamamatsu photomultiplier tubes. The system included a cylindrical aperture with twenty four 1-mm diameter pinholes drilled in the aperture. A point source in the center of the field of view is projected simultaneously to the center of each camera. Total magnification is 3.5 in a 3.0 cm×3.2 cm×3.2 cm field of view. The spatial resolution of the system is about 1.0 mm, with a sensitivity of 13.3 cps/μCi.
(§3) ^99mTc-GLA or ^99mTc-MIBI (5-8 mCi, 185-296 MBq) was injected via a jugular vein catheter. Dynamic images were acquired for 2 hours. Twenty-four projections were obtained, one from each camera. Each scintillation event within the camera's NaI crystal was registered as the digitized outputs from the camera's four photomultiplier tubes. The four photomultiplier outputs were compared to a 20-bit look-up table derived from a calibration procedure that involved moving a collimated source across the camera face.
(§4) Tumor image reconstruction was performed using 100 iterations of the maximum-likelihood expectation-maximization (ML-EM) algorithm. Using SlicerDicer software, three-dimensional images were computed to provide images in a 33×49×49 voxels format, and generate tomographic transaxial, coronal and sagittal slices with one-pixel thickness (1.0 mm). Regions of interest (ROI) over the tumors were created and applied to the dynamic images for determining time-activity curves. The percent washout rate relative to the peak uptake of the tumors were calculated.

[2] = system: MCF7/D40 tumor xenograft; assay: FASTSPECT dynamic imaging and tumor washout kinetics, drug-resistant (Pgp positive) xenograft; assay type: in vivo, SCID mice; conditions: mean ± s.e.m.
Method: as §1, §2, §3, §4

[C-]#[N+]CC(C)(C)OC.[C-]#[N+]CC(C)(C)OC.[C-]#[N+]CC(C)(C)OC.[C-]#[N+]CC(C)(C)OC.[C-]#[N+]CC(C)(C)OC.[C-]#[N+]CC(C)(C)OC.[Tc] [^99mTc-sestamibi, reference compound]
Biexponential tumor clearance half-time, early phase [1]: 11.4 ± 1.9 min | Biexponential tumor clearance half-time, late phase [1]: 431.3 ± 56.1 min | Biexponential tumor clearance half-time, early phase [2]: 4.4 ± 1.4 min | Biexponential tumor clearance half-time, late phase [2]: 178.9 ± 21.5 min

^99mTc-glucarate
Biexponential tumor clearance half-time, early phase [1]: 12.2 ± 2.6 min | Biexponential tumor clearance half-time, late phase [1]: 170.1 ± 16.2 min | Biexponential tumor clearance half-time, early phase [2]: 12.4 ± 2.3 min | Biexponential tumor clearance half-time, late phase [2]: 219.3 ± 38.8 min
